Results are given in words; binding and its absence hold for the method and conditions named. Binding seen in cells or lysates may run through a third protein. Some entries that bind do so weakly or less than the wild type. For some assays here: Tags and fused reporters may be left off the sequences shown.

By UniProt entry, the sequences of proteins in these tests, tags left out.
UniProt Q9UER7: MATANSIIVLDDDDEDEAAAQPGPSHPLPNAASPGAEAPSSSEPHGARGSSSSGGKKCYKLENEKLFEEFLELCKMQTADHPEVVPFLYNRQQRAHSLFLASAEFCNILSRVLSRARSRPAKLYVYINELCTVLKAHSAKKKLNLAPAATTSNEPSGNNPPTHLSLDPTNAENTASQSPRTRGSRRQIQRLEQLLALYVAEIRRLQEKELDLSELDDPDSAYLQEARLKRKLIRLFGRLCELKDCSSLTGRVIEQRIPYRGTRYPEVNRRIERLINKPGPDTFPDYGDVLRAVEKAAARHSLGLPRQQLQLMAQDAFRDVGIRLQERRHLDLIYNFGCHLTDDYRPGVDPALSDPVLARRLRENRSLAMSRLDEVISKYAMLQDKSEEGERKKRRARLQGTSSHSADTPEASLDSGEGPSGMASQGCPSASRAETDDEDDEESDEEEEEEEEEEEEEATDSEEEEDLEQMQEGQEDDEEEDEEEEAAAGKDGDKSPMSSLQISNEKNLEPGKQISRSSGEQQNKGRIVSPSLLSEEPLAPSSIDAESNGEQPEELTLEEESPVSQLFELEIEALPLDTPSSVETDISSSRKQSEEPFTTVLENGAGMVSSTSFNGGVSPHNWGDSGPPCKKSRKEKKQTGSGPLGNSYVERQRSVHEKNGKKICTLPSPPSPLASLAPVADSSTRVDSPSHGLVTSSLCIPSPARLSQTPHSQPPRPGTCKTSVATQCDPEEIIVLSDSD

This is an account of results in paper PMC5741900.

The target in one assay is T1, FLAG-HA-CENP-B (UniProt P07199).
T1 sequence: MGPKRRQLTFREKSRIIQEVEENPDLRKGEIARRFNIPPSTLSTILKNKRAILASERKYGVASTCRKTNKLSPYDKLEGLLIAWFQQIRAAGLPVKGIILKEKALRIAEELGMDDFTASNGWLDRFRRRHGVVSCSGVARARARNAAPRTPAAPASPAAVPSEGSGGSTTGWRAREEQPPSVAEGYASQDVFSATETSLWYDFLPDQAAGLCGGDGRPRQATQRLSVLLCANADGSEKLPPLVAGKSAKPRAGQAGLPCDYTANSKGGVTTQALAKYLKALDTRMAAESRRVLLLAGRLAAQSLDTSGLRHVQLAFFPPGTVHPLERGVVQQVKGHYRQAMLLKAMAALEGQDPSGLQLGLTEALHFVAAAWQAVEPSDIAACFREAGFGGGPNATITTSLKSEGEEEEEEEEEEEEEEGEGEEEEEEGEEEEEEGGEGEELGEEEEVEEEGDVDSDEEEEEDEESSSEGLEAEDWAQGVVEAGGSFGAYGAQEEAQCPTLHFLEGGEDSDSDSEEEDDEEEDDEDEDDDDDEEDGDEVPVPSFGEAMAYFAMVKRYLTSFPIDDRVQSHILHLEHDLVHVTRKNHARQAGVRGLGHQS
Nature of the assay: co-IP; anti-FLAG-M2 magnetic beads on the chromatin fraction of HEp2 cells stably expressing FLAG-HA-CENP-B; blot with Daxx and HA antibodies; also after scrambled, SUMO-1 or SUMO-2 siRNA and MG132 (10 µM, 4 h), densitometry relative to control siRNA.

For another assay, the target named is FLAG-HA-Daxx (UniProt Q9UER7). The assay can be described thus: co-IP; FLAG magnetic beads on the chromatin fraction (400 mM NaCl extract) of HEp2 cells stably expressing FLAG-HA-Daxx or FLAG-HA-DaxxΔSIM; washed six times with high salt buffer, eluted with FLAG peptide; blot with CREST and CENP-B antibodies.

Take “Daxx, endogenous (from UniProt Q9UER7 1-740)”: in the assay with FLAG-HA-CENP-B, the binding result is recorded as “binds”.

B1: CENP-B (centromere protein B), endogenous (protein, UniProt P07199 1-599)
chain: MGPKRRQLTFREKSRIIQEVEENPDLRKGEIARRFNIPPSTLSTILKNKRAILASERKYGVASTCRKTNKLSPYDKLEGLLIAWFQQIRAAGLPVKGIILKEKALRIAEELGMDDFTASNGWLDRFRRRHGVVSCSGVARARARNAAPRTPAAPASPAAVPSEGSGGSTTGWRAREEQPPSVAEGYASQDVFSATETSLWYDFLPDQAAGLCGGDGRPRQATQRLSVLLCANADGSEKLPPLVAGKSAKPRAGQAGLPCDYTANSKGGVTTQALAKYLKALDTRMAAESRRVLLLAGRLAAQSLDTSGLRHVQLAFFPPGTVHPLERGVVQQVKGHYRQAMLLKAMAALEGQDPSGLQLGLTEALHFVAAAWQAVEPSDIAACFREAGFGGGPNATITTSLKSEGEEEEEEEEEEEEEEGEGEEEEEEGEEEEEEGGEGEELGEEEEVEEEGDVDSDEEEEEDEESSSEGLEAEDWAQGVVEAGGSFGAYGAQEEAQCPTLHFLEGGEDSDSDSEEEDDEEEDDEDEDDDDDEEDGDEVPVPSFGEAMAYFAMVKRYLTSFPIDDRVQSHILHLEHDLVHVTRKNHARQAGVRGLGHQS
B1: the binding result in the assay with FLAG-HA-Daxx is “binds”.
